Results are given in words; binding and its absence hold for the method and conditions named.
Target: bovine serum albumin (bovine), P02769
Test: ELISA; plates coated with recombinant proteins (1 μg/ml) or BSA; blocked with PBS/2% BSA; normal human serum (0–100% in PBS) for 90 min at 37°C; detected with anti-FH, anti-C4BP or anti-PLG and HRP conjugate, read at 450 nm; only the target purified
Conditions: remark: other sources report otherwise

B1: Factor H, P08603 19-1231 (protein)
chain: EDCNELPPRRNTEILTGSWSDQTYPEGTQAIYKCRPGYRSLGNVIMVCRKGEWVALNPLRKCQKRPCGHPGDTPFGTFTLTGGNVFEYGVKAVYTCNEGYQLLGEINYRECDTDGWTNDIPICEVVKCLPVTAPENGKIVSSAMEPDREYHFGQAVRFVCNSGYKIEGDEEMHCSDDGFWSKEKPKCVEISCKSPDVINGSPISQKIIYKENERFQYKCNMGYEYSERGDAVCTESGWRPLPSCEEKSCDNPYIPNGDYSPLRIKHRTGDEITYQCRNGFYPATRGNTAKCTSTGWIPAPRCTLKPCDYPDIKHGGLYHENMRRPYFPVAVGKYYSYYCDEHFETPSGSYWDHIHCTQDGWSPAVPCLRKCYFPYLENGYNQNYGRKFVQGKSIDVACHPGYALPKAQTTVTCMENGWSPTPRCIRVKTCSKSSIDIENGFISESQYTYALKEKAKYQCKLGYVTADGETSGSITCGKDGWSAQPTCIKSCDIPVFMNARTKNDFTWFKLNDTLDYECHDGYESNTGSTTGSIVCGYNGWSDLPICYERECELPKIDVHLVPDRKKDQYKVGEVLKFSCKPGFTIVGPNSVQCYHFGLSPDLPICKEQVQSCGPPPELLNGNVKEKTKEEYGHSEVVEYYCNPRFLMKGPNKIQCVDGEWTTLPVCIVEESTCGDIPELEHGWAQLSSPPYYYGDSVEFNCSESFTMIGHRSITCIHGVWTQLPQCVAIDKLKKCKSSNLIILEEHLKNKKEFDHNSNIRYRCRGKEGWIHTVCINGRWDPEVNCSMAQIQLCPPPPQIPNSHNMTTTLNYRDGEKVSVLCQENYLIQEGEEITCKDGRWQSIPLCVEKIPCSQPPQIEHGTINSSRSSQESYAHGTKLSYTCEGGFRISEENETTCYMGKWSSPPQCEGLPCKSPPEISHGVVAHMSDSYQYGEEVTYKCFEGFGIDGPAIAKCLGEKWSHPPSCIKTDCLSLPSFENAIPMGEKKDVYKAGEQVTYTCATYYKMDGASNVTCINSRWTGRPTCRDTSCVNPPTVQNAYIVSRQMSKYPSGERVRYQCRSPYEMFGDEEVMCLNGNWTEPPQCKDSTGKCGPPPPIDNGDITSFPLSVYAPASSVEYQCQNLYQLEGNKRITCRNGQWSEPPKCLHPCVISREIMENYNIALRWTAKQKLYSRTGESVEFVCKRGYRLSSRSHTLRTTCWDGKLEYPTCAKR
  binding: no binding

Reference: PMC8988195
